Test results: article PMC5871780, “Klf4 glutamylation is required for cell reprogramming and early embryonic development in mice”
These are yes or no findings as the source states them, for the method shown. In cells and extracts the contact can be indirect. Some entries that bind do so weakly or less than the wild type.

Sequences of proteins named here, by UniProt entry; tags and fusion partners are left off.
UniProt Q60793: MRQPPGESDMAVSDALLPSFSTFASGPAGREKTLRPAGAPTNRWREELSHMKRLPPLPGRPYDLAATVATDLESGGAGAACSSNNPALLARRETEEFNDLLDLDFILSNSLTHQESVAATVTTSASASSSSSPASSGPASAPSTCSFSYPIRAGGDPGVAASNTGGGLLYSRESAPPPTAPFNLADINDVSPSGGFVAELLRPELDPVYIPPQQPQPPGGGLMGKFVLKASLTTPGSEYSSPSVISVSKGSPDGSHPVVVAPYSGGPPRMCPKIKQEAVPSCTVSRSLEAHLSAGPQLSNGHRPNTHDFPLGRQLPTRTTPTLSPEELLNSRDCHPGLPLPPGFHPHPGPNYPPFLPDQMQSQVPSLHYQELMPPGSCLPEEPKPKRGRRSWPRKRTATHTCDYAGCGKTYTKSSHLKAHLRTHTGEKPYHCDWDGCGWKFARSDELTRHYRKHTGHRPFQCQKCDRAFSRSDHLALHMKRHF
UniProt Q9Y297: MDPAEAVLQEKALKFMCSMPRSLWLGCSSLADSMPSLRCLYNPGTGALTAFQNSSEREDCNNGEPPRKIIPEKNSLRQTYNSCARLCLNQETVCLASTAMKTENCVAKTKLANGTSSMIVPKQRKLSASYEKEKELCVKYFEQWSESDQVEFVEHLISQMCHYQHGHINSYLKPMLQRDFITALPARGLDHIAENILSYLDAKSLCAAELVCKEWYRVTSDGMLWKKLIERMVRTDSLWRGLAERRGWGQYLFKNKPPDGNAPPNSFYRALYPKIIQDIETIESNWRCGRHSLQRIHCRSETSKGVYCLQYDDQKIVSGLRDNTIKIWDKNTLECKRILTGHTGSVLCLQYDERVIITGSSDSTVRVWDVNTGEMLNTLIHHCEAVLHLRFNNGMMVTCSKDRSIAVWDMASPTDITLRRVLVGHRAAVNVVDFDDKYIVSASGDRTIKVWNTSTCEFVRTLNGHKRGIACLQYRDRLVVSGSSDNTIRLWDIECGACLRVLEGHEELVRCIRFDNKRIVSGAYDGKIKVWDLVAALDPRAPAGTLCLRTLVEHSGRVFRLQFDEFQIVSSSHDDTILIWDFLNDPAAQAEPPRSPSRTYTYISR

Target: rGST-Klf4 (recombinant GST-tagged mouse wild-type Klf4) (mouse) (UniProt Q60793)
Experiment: pull-down; rGST-Klf4, with or without pre-incubation with lysates from 293T cells transfected with Flag-TTLL4 at 37 °C for 2 h, GST pulldown with Flag-βTrCP1, immunoblotting

binding: binds
Substance: Flag-βTrCP1 (from UniProt Q9Y297 1-605)
